Laboratory results taken from PMC13247160.

Chains of the proteins cited; added tags and fusions are not shown.
UniProt Q92905: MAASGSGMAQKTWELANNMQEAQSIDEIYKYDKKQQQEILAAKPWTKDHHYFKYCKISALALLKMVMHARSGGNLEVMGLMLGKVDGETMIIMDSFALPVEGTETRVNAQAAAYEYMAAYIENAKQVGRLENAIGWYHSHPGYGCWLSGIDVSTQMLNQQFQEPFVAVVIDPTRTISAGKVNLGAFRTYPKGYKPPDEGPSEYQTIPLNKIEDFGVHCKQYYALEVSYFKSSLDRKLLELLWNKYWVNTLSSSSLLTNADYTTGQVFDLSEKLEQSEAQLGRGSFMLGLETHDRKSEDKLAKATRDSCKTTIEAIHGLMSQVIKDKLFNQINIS
UniProt Q13620: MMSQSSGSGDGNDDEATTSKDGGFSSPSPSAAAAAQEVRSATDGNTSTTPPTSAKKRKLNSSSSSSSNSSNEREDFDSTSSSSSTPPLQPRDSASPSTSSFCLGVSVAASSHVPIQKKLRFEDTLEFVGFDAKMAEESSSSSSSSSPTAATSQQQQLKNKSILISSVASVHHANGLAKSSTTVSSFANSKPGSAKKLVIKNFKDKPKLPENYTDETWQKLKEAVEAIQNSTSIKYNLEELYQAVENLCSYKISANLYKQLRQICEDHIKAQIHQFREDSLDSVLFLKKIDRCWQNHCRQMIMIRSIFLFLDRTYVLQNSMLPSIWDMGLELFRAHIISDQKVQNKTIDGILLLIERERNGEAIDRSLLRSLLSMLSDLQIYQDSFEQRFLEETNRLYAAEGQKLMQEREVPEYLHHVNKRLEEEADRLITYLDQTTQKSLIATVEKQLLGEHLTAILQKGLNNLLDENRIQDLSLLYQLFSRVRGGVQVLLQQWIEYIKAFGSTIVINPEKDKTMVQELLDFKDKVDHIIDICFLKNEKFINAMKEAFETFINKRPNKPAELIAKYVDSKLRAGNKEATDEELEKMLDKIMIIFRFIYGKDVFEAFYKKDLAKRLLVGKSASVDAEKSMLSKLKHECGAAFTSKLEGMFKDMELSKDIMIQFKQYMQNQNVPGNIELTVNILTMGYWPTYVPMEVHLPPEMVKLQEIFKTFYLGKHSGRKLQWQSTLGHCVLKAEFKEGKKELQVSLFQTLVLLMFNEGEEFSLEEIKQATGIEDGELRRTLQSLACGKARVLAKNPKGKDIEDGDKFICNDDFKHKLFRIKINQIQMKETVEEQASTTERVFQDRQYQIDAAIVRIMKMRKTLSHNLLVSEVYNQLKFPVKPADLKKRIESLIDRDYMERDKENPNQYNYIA

Target: C-Jun activation domain-binding protein-1 (JAB1), FLAG-tagged (UniProt Q92905)
Assay: affinity purification with mass spectrometry; lysate of MDA-MB-231 cells (5 x 10^8) transfected with FLAG-tagged JAB1 loaded onto a FLAG column; complex eluted, SDS-PAGE, silver staining, mass spectrometry

binding: binds
Substance: CUL4B (Cullin 4B; endogenous, MDA-MB-231) (from UniProt Q13620 1-913)

Results are given in words; binding and its absence hold for the method and conditions named. In cells and extracts the contact can be indirect. These calls come from enrichment with a bait or labelling near it, and not all partners need be listed.
